# These are yes or no findings as the source states them, for the method shown. Some binding calls cover weakened binding; strength is not graded here.
# Protein sequences, listed by entry. Tags and fused reporters are not part of them.
# UniProt P61956: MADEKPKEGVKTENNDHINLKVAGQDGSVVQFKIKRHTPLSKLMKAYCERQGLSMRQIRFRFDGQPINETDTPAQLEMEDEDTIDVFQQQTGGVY
# Biological target: small ubiquitin-like modifier 2 (SUMO2), two-hybrid bait (UniProt P61956)
# Assay: two-hybrid; yeast two-hybrid screen for cardiac interactors of SUMO2
binder,measurement,value
"HectD3, two-hybrid prey (protein, UniProt Q5T447 1-861) MAGPGPGAVLESPRQLLGRVRFLAEAARSLRAGRPLPAALAFVPREVLYKLYKDPAGPSRVLLPVWEAEGLGLRVGAAGPAPGTGSGPLRAARDSIELRRGACVRTTGEELCNGHGLWVKLTKEQLAEHLGDCGLQEGWLLVCRPAEGGARLVPIDTPNHLQRQQQLFGVDYRPVLRWEQVVDLTYSHRLGSRPQPAEAYAEAVQRLLYVPPTWTYECDEDLIHFLYDHLGKEDENLGSVKQYVESIDVSSYTEEFNVSCLTDSNADTYWESDGSQCQHWVRLTMKKGTIVKKLLLTVDTTDDNFMPKRVVVYGGEGDNLKKLSDVSIDETLIGDVCVLEDMTVHLPIIEIRIVECRDDGIDVRLRGVKIKSSRQRELGLNADLFQPTSLVRYPRLEGTDPEVLYRRAVLLQRFIKILDSVLHHLVPAWDHTLGTFSEIKQVKQFLLLSRQRPGLVAQCLRDSESSKPSFMPRLYINRRLAMEHRACPSRDPACKNAVFTQVYEGLKPSDKYEKPLDYRWPMRYDQWWECKFIAEGIIDQGGGFRDSLADMSEELCPSSADTPVPLPFFVRTANQGNGTGEARDMYVPNPSCRDFAKYEWIGQLMGAALRGKEFLVLALPGFVWKQLSGEEVSWSKDFPAVDSVLVKLLEVMEGMDKETFEFKFGKELTFTTVLSDQQVVELIPGGAGIVVGYGDRSRFIQLVQKARLEESKEQVAAMQAGLLKVVPQAVLDLLTWQELEKKVCGDPEVTVDALRKLTRFEDFEPSDSRVQYFWEALNNFTNEDRSRFLRFVTGRSRLPARIYIYPDKLGYETTDALPESSTCSSTLFLPHYASAKVCEEKLRYAAYNCVAIDTDMSPWEE",binding,binds
